Paper PMC6925144, “A prospective compound screening contest identified broader inhibitors for Sirtuin 1” (Scientific Reports, 2019)
The full ranking holds about 3,200 compounds; the median of “TSA(with NAD+) / Primary screening (TSA) / delta Tm (K)” is about -0.04, and the highest 2% start at about 0.37. Some of the results follow.

By UniProt entry, the sequences of proteins in these tests, tags left out. Residues count along the entry.
UniProt Q96EB6, 2-747 limits assumed: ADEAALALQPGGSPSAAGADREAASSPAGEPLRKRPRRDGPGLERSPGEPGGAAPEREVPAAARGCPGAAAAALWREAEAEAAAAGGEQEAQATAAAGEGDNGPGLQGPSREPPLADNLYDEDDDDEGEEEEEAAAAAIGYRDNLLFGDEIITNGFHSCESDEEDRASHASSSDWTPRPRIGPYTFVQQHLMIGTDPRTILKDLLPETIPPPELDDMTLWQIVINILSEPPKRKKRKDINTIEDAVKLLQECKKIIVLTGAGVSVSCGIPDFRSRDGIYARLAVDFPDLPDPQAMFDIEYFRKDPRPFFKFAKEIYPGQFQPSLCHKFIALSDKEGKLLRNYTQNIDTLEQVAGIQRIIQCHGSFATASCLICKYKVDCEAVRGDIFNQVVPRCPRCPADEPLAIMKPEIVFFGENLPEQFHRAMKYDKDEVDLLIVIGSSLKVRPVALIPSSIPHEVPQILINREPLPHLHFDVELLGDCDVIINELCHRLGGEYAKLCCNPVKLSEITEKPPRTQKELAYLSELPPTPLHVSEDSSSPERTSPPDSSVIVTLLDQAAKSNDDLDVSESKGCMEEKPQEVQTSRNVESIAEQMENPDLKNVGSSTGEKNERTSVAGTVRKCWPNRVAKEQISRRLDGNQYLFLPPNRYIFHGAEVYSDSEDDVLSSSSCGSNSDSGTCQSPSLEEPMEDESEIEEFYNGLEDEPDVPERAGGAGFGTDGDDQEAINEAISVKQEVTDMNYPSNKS

Molecular target: NAD-dependent deacetylase Sirtuin 1 (human, UniProt Q96EB6)
Assay: primary screen, delta tm
Parameters: single well (n = 1, as 'the same TSA')
Conditions: 10 µM

SMILES | TSA(with NAD+) / Primary screening (TSA) / delta Tm (K)
N#CCOc1ccccc1/C=C1\Oc2cc(O)ccc2C1=O | -0.14 K
CCc1cccc(CC)c1NC(=O)C(c1ccccc1)c1ccccc1 | 0.18 K
Cc1c2c(c(C#N)c3nc4ccccc4n13)CCCC2 | -0.09 K
Cc1nc(S)sc1CC(=O)N1CCCC(C)(O)C1 (centres unmarked) | -0.24 K
O=C(CSc1nc2ccccc2c(=O)n1CCCO)c1cc(F)ccc1F | -0.01 K
O=C(Nc1cccc(S(=O)(=O)N2CCOCC2)c1)C(c1ccccc1)c1ccccc1 | 0.16 K
NC(=O)C1CCN(c2ncnc3c2oc2ccccc23)CC1 | -0.09 K
COc1cc(NC(=O)c2ccco2)c(C(=O)OCC(=O)NC(C)C23CC4CC(CC(C4)C2)C3)cc1OC (centres unmarked) | 0.08 K
Cc1sc2ncnc(N3CCC(C(=O)N(C)CC(=O)Nc4ccccc4Cl)CC3)c2c1C | -0.09 K
CC1(CN)CCNC1 (centres unmarked) | -0.13 K
O=C1CCCN1Cc1ccc(-c2ccccc2CNC(=O)C23CC4CC(CC(C4)C2)C3)cc1 | -0.05 K
Cc1c(C(=O)NCC2CCCc3ccccc32)[nH]c2c1C(=O)CC(C)(C)C2 (centres unmarked) | -0.11 K
O=C(COC(=O)C1=COCCO1)NC(c1ccccc1)c1ccccc1 | -0.23 K
CC(C)c1ccccc1-n1c(SCC(=O)Nc2sccc2C(N)=O)nc2ccccc2c1=O | 0.15 K
CCCC(C(=O)Nc1cc(C)on1)N1CCCC(c2nc(C)no2)C1 (centres unmarked) | 0.08 K
COC(=O)c1ccccc1Nc1ccnc(Cl)n1 | -0.11 K
CCOCCNc1ncnc2ccsc12 | -0.03 K
Cc1nc(C(C)NC(=O)c2ccc(Cl)s2)sc1C(=O)O (centres unmarked) | -0.05 K
Cc1ccc2oc(C3(C)Cc4ccccc4C(=O)O3)cc(=O)c2c1 (centres unmarked) | -0.11 K
Cc1cccc(Cc2cnc(NC(=O)CCNC(=O)c3ccccc3Cl)s2)c1 | 0.03 K
N#CCn1cc(C(F)(F)F)cc(Cl)c1=O | -0.01 K
CCCC(N)CC (centres unmarked) | -0.14 K
COc1cc(C(C)=O)ccc1OCc1noc(C)n1 | -0.23 K
O=C(COC(=O)c1ccc(S(=O)(=O)N2CCCc3ccccc32)cc1)NC12CC3CC(CC(C3)C1)C2 | -0.11 K

Reprinted at random: 2 records from the list, in no set order.
SMILES | TSA(with NAD+) / Primary screening (TSA) / delta Tm (K)
N#CCn1cc(C(F)(F)F)cc(Cl)c1=O | -0.01 K
CCCC(N)CC (centres unmarked) | -0.14 K

Next part

SMILES | TSA(with NAD+) / Primary screening (TSA) / delta Tm (K)
COC(=O)CNC(=O)c1cccc(NC(=O)CCc2nnc(-c3ccc(Cl)cc3)o2)c1 | -0.01 K
O=C1/C(=C/c2cccc(Br)c2)Oc2cc(O)ccc21 | 0.36 K
O=C(OCc1ccccc1)c1c[nH]c2ccccc12 | -0.23 K
CC(SCc1cccc2ccccc12)C(=O)Nc1ncccn1 (centres unmarked) | -0.22 K
CC(N)CCN(C)C (centres unmarked) | -0.04 K
Cc1oc(C)c(C(=O)NCc2cccc(NC(=O)CN(C)C)c2)c1C | -0.05 K
Nc1nc(-c2cc3ccccc3oc2=O)nc2c1c(=O)oc1ccccc12 | 0.03 K
CCNc1ccnc(CSc2nc3ccsc3c(=O)n2C)c1 | 0.09 K
COc1cccc(CSc2nc3ccsc3c(=O)n2C)c1 | -0.09 K
CCOc1cc(N2CCOCC2)c(OCC)cc1NC(=O)C1=COCCO1 | -0.11 K
Cc1oc(-c2ccccc2)nc1CN1CCN(c2nncc3ccccc23)CC1 | -0.01 K
Cc1c(Cl)cccc1NC(=O)CNC(N)=O | -0.05 K
COC(C)CN (centres unmarked) | -0.12 K
CCn1cc(C2CCN(C(=O)Cc3cnc4ccccc4c3)CC2)cn1 | 0.68 K
CCc1ncc(F)c(Cl)n1 | -0.16 K
CN(C)C(=O)N1CCCC(C(=O)Nc2ccc3c(c2)-c2ccccc2C3)C1 (centres unmarked) | 0.01 K
CCc1ccc(C(N)=S)cc1 | -0.08 K
CN(c1ccccc1)S(=O)(=O)c1cccc(C(=O)Nc2ccccc2)c1 | -0.01 K
Cc1nc(-c2ccccn2)[nH]c(=O)c1CC(=O)NCCc1cccc2cccnc12 | 0.28 K
O=C(CN1CCN(C(=O)c2ccc(-c3ccc(Cl)cc3)o2)CC1)Nc1cccc(F)c1 | 0.32 K
NC(=O)c1ccc(C(=O)OCC(=O)c2cc3ccccc3o2)cc1 | -0.15 K
Cc1nc(-c2ccc(CCNC(=O)c3ccc(-n4cncn4)cc3)s2)cs1 | -0.14 K
Cc1cc(C)nc(NS(=O)(=O)c2ccc(NN=C3C(=O)NC(=S)NC3=O)cc2)n1 | 0.09 K
CCCOc1ccc(C2C(C(=O)c3ccc(F)cc3)=C(O)C(=O)N2CCCN2CCOCC2)cc1 (centres unmarked) | 0.06 K

SMILES | TSA(with NAD+) / Primary screening (TSA) / delta Tm (K)
Cc1ccccc1-c1cc(-c2ccccc2)c2cc([N+](=O)[O-])ccc2n1 | 0.16 K
COc1ccccc1S(=O)(=O)NCc1ccc(C(=O)NCC23CC4CC(CC(C4)C2)C3)cc1 | 0.09 K
Cn1c(Cn2nnc3ccccc3c2=O)nc2cc(Cl)ccc21 | -0.01 K
Cc1cc2nc(N3CCC(CNC(=O)OC(C)(C)C)CC3)c3ccccc3n2n1 | -0.28 K
CC(NS(=O)(=O)c1cccc(C(=O)OCC(=O)Nc2sccc2C#N)c1)C12CC3CC(CC(C3)C1)C2 (centres unmarked) | 0.37 K
COc1ccc(CNC(=S)NC2CCCCC2)cc1OC | 0.16 K
Nc1nc2cc(C(=O)O)ccc2[nH]1 | -0.18 K
CN(c1ccccc1C(N)=O)S(=O)(=O)c1cccc(Cl)c1 | -0.02 K
Cc1cc(C=C2C(=O)NC(=S)NC2=O)c(C)n1-c1ccccc1C(F)(F)F | -1.15 K
O=C1/C(=C/c2ccc(Br)cc2F)Cc2c(O)cccc21 | 0.11 K
NC(=O)c1cccc(COC(=O)c2ccc3[nH]c(C(F)F)nc3c2)c1 | -0.11 K
COc1ccc(N(C)S(=O)(=O)c2cccc(C(=O)Nc3ccc(-n4cnnn4)cc3)c2)cc1 | 0.76 K
Cc1ccccc1-c1nnn(Cc2cc(=O)oc3c(C)c(C)ccc23)n1 | -0.18 K
COCC(=O)N1CCN(Cc2c(O)ccc3ccc(OC)cc23)CC1 | -0.16 K
CC(C)(C)C(=O)N1CCc2cnccc21 | -0.15 K
CCCNC(=O)c1ccc2[nH]c3c(c2c1)CC(C)CC3 (centres unmarked) | -0.03 K
CC(Oc1cccc(/C=C2/CCc3cc(O)ccc3C2=O)c1)C(=O)O (centres unmarked) | -0.18 K
CC(=O)NC12CC3CC(C1)CC(C(=O)OCC(=O)N(CCc1ccccc1)CCc1ccccc1)(C3)C2 | -0.01 K
O=C(OCc1nnc(C(=O)NCc2ccc(F)cc2)s1)c1cc2c(s1)CCCC2 | -0.14 K
CC(C)c1nnc(CSc2nccn2Cc2ccccn2)o1 | -0.16 K
CC(N)CC(N)=O (centres unmarked) | -0.13 K
CN1CC(Nc2c(C#N)cnc3ccc(Cl)cc23)CCC1=O (centres unmarked) | 0.02 K
COc1ccc(-c2ccc(/C=C3\NC(=S)NC3=O)o2)c([N+](=O)[O-])c1 | -0.02 K
CCOC(=O)N1CCN(Cc2ccc(OCc3cccnc3)cc2)CC1 | -0.03 K

Sorted by number of heavy atoms (descending): part of the list above
SMILES | TSA(with NAD+) / Primary screening (TSA) / delta Tm (K)
CC(=O)NC12CC3CC(C1)CC(C(=O)OCC(=O)N(CCc1ccccc1)CCc1ccccc1)(C3)C2 | -0.01 K
COc1ccc(N(C)S(=O)(=O)c2cccc(C(=O)Nc3ccc(-n4cnnn4)cc3)c2)cc1 | 0.76 K
Cc1cc2nc(N3CCC(CNC(=O)OC(C)(C)C)CC3)c3ccccc3n2n1 | -0.28 K

(cont.)

SMILES | TSA(with NAD+) / Primary screening (TSA) / delta Tm (K)
CC(=O)Nc1ccc2c(COC(=O)C34CC5CC(C3)CC(c3ccccc3)(C5)C4)cc(=O)oc2c1 | 0.03 K
CC1CCc2c(sc3ncn(CC(=O)c4ccc5c(c4)CCC5)c(=O)c23)C1 (centres unmarked) | 0.16 K
Cc1ccc(C2C(C(=O)c3sc(C)nc3C)=C(O)C(=O)N2CCCN2CCOCC2)cc1 (centres unmarked) | -0.23 K
Sc1ccc(Cl)cn1 | 0.09 K
CC(C)(C)OC(=O)NCC1CCCN1c1ccc(Br)cc1[N+](=O)[O-] (centres unmarked) | 0.16 K
CN(c1ccc(OC(=O)c2cc(Cl)nc3ccccc23)cc1)S(=O)(=O)c1ccccc1 | -0.12 K
NC(=O)c1c(NC(=O)CN2CCCC(CN3CCN(c4ccccn4)CC3)C2)sc2c1CCCC2 (centres unmarked) | -0.06 K
C=CCn1c(N)nnc1SCC1CC(C(=O)OC)=C(C)O1 (centres unmarked) | 0.02 K
O=C(CCc1ccccc1)NCCNc1cnccn1 | -0.04 K
CCN1C(=O)c2oc3ccccc3c(=O)c2C1c1ccc(Cl)cc1 (centres unmarked) | -0.01 K
Cc1cc(C)c(C(N)=O)c(N2CCC3CCCCC3C2)n1 (centres unmarked) | -0.03 K
CC(C)CC(NC(=O)C#Cc1ccccc1)C(=O)Nc1cc[nH]n1 (centres unmarked) | -0.14 K
O=C(CSc1nnc(-c2sc3ccccc3c2Cl)o1)N1CCN(C(=O)c2ccco2)CC1 | -0.13 K
O=C(c1ccco1)N1CCC(Nc2nc(-c3ccccc3)nc3ccccc23)CC1 | 0.07 K
O=C(COC(=O)/C=C/c1cn(-c2ccccc2)nc1-c1cc2ccccc2oc1=O)NC1CCS(=O)(=O)C1 (centres unmarked) | -0.22 K
O=c1cc(CSc2nnc(-c3ccccc3)o2)c2cc3c(cc2o1)CCC3 | -0.01 K
COc1ccc(/C=C2/Oc3cc(O)ccc3C2=O)c(OC)c1 | 0.12 K
O=C(c1ccccc1)C1CCN(c2ncnc3c2oc2ccccc23)CC1 | -0.03 K
NC(=O)NCc1ccc(C(=O)Nc2nc(-c3c[nH]c(C(N)=O)c3)cs2)cc1 | 0.11 K
Cc1nc(C)c(C(=O)C2=C(O)C(=O)N(CCCN3CCOCC3)C2c2ccc(Cl)cc2)s1 (centres unmarked) | 0.05 K
NC(=O)c1oc2ccccc2c1NC(=O)Cc1ccc(Cl)c(Cl)c1 | 0.12 K
CCCOc1ccc(C2C(C(=O)c3ccc(C)o3)=C(O)C(=O)N2CCCN2CCOCC2)cc1 (centres unmarked) | 0.06 K
O=C(CCOc1ccccc1)Nc1ccc(N2CCN(Cc3ccccc3)CC2)cc1 | 0.09 K
